Here are results for 39 targets from the supplement of paper PMC6411743.

Amino acid sequences for entries named in this document (tags omitted). A change or cut given only in a name is not applied to a line headed by its entry.
UniProt Q9Y3L3: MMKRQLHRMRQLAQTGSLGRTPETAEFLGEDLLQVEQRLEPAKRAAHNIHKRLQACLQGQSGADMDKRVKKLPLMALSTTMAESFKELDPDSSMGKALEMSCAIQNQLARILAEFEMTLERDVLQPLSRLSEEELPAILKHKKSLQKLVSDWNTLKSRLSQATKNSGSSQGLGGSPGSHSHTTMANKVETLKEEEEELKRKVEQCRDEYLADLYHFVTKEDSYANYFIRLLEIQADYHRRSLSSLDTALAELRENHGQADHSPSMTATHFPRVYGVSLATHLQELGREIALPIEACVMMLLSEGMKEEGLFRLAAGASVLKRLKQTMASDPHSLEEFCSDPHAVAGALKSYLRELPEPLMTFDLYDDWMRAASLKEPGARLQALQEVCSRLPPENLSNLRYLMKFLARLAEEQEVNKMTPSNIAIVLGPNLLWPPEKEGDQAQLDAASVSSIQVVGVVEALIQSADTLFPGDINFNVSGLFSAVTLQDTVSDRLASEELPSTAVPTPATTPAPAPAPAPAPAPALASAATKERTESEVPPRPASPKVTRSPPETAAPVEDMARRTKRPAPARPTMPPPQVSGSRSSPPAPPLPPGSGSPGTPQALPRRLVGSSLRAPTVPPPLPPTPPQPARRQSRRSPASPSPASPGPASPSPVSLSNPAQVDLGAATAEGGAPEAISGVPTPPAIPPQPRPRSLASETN
UniProt Q9Y6A9: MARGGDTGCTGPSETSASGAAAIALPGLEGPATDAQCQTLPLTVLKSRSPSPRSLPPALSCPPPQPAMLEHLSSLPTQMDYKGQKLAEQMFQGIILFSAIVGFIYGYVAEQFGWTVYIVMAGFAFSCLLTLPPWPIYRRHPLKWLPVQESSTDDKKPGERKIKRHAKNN
UniProt Q9Y2Q5, whole entry: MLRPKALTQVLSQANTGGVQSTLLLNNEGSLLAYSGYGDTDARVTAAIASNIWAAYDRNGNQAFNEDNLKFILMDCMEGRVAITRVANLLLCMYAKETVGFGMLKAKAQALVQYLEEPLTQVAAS
UniProt Q9Y2Y0: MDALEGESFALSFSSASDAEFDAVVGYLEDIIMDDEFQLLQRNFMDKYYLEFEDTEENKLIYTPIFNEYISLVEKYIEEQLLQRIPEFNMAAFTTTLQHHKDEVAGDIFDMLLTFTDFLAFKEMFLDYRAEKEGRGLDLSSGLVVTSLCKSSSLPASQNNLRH
UniProt Q9Y375: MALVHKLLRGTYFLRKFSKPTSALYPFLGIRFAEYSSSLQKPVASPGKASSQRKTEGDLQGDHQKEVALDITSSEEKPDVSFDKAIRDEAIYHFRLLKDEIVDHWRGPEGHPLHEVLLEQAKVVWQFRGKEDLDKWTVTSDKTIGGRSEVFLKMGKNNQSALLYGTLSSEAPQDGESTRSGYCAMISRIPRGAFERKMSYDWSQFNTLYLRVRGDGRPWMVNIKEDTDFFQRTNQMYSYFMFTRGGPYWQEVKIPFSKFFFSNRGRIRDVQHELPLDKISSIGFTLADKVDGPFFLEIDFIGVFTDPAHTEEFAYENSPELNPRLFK
UniProt Q9Y2T7, whole entry: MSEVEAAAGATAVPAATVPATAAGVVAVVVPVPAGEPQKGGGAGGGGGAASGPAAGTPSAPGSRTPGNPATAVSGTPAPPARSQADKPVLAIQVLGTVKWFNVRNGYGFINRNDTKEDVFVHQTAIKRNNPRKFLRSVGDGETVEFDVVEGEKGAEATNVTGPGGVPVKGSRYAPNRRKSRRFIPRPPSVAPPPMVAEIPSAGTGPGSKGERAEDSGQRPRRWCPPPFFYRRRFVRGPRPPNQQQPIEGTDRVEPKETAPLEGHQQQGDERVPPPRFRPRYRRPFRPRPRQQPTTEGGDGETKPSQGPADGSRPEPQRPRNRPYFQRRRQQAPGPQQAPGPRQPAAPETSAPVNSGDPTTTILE
UniProt Q9Y2S6, whole entry: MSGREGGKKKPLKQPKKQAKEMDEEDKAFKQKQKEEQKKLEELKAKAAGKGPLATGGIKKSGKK
UniProt P48556: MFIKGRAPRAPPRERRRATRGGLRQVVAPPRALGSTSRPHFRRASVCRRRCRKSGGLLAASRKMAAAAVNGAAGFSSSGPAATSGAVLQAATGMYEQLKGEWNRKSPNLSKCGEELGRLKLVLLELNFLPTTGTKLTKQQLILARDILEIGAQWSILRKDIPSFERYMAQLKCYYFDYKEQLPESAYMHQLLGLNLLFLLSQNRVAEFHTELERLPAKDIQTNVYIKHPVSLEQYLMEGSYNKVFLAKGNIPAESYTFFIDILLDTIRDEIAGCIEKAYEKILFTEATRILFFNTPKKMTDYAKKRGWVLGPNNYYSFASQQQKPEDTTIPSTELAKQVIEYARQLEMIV
UniProt Q9Y3F4: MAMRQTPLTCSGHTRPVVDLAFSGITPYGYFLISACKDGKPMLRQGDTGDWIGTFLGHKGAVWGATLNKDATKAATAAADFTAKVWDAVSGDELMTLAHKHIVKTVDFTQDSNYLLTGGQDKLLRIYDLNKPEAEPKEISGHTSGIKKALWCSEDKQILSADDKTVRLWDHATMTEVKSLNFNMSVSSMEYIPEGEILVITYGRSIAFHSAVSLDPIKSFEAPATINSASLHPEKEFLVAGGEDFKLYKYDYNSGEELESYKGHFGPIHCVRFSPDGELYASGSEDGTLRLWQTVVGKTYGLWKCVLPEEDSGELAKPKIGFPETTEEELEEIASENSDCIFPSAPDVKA
UniProt Q9Y4R8, whole entry: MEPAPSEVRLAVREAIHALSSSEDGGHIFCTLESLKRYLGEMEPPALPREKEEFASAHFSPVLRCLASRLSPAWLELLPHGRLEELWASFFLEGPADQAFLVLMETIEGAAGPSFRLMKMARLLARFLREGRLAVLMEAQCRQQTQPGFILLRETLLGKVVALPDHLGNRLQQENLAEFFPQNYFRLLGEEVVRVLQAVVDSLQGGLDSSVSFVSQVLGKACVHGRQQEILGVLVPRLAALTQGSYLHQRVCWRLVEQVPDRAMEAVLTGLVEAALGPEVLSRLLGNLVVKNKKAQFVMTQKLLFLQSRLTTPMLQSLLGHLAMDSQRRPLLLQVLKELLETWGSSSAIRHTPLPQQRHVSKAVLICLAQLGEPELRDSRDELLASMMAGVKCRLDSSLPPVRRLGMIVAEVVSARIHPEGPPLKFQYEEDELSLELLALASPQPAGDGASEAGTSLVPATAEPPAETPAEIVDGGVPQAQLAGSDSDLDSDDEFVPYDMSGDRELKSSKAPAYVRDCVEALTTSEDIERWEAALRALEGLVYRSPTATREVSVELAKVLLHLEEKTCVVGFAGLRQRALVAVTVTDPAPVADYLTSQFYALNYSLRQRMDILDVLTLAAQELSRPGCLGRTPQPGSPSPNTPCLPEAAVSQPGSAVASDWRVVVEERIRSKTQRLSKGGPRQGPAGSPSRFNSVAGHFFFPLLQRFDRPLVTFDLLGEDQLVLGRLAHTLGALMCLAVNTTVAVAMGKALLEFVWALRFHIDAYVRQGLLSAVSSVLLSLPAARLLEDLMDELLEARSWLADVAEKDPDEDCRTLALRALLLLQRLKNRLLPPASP
UniProt Q9Y679: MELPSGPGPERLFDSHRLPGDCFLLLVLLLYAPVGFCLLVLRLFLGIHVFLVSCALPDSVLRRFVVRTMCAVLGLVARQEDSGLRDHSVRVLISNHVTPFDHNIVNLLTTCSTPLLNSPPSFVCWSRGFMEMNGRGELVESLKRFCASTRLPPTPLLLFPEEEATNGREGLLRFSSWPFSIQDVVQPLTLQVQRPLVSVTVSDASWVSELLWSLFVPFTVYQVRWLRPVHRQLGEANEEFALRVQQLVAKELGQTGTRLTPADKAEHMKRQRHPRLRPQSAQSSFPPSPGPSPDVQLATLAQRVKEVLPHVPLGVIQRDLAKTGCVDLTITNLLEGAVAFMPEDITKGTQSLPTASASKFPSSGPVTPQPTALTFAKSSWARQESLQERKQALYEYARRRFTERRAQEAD
UniProt Q9Y5Q8: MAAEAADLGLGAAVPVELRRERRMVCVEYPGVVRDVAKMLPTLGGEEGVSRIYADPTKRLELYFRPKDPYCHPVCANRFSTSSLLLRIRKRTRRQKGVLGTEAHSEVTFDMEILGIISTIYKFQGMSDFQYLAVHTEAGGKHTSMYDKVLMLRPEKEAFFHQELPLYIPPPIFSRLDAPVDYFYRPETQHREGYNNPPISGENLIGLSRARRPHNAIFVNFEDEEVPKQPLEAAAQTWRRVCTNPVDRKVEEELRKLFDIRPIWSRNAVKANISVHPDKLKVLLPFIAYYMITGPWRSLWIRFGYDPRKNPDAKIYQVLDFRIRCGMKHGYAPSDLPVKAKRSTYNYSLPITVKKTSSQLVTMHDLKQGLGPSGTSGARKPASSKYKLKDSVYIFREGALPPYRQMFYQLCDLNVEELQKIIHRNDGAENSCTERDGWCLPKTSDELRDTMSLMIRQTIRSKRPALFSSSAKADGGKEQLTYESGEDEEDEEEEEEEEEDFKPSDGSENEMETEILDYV
UniProt Q9Y608: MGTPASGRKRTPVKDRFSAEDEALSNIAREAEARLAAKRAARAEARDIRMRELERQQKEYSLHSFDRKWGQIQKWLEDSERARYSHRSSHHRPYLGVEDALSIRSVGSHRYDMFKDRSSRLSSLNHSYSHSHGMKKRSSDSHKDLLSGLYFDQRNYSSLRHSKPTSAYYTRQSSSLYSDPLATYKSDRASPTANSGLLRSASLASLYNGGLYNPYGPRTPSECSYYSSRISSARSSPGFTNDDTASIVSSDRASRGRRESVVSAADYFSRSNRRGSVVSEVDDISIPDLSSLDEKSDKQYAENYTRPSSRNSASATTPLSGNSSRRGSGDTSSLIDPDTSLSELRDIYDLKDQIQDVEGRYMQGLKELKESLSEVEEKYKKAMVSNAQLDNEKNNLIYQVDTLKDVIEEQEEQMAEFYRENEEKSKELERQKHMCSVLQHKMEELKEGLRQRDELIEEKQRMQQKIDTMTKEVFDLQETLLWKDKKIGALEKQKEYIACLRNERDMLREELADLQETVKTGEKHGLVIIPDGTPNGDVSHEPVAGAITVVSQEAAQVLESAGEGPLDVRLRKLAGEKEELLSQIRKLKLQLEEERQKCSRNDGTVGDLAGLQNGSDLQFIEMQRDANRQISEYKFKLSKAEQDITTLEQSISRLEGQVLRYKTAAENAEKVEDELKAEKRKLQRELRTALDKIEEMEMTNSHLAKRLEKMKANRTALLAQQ
UniProt Q9Y5V3: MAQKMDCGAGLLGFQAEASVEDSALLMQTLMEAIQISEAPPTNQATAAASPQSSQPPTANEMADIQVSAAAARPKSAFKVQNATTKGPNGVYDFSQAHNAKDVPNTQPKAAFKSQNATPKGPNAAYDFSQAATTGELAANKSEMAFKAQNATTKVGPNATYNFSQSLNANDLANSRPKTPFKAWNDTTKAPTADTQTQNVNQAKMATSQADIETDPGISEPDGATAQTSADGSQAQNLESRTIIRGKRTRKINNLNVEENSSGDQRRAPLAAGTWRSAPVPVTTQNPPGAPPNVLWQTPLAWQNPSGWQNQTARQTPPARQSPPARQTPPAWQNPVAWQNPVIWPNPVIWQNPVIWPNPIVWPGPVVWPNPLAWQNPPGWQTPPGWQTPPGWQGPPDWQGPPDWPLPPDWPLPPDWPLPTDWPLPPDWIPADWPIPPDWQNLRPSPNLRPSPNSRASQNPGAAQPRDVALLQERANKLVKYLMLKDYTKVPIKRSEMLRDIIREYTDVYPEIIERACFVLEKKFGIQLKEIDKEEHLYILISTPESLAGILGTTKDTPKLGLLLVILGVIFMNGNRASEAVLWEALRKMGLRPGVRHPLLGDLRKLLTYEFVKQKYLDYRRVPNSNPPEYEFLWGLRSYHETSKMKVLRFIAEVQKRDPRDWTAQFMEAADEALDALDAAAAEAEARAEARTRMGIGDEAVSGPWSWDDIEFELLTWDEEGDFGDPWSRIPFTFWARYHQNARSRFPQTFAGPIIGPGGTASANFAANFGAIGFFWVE
UniProt Q9Y2U5: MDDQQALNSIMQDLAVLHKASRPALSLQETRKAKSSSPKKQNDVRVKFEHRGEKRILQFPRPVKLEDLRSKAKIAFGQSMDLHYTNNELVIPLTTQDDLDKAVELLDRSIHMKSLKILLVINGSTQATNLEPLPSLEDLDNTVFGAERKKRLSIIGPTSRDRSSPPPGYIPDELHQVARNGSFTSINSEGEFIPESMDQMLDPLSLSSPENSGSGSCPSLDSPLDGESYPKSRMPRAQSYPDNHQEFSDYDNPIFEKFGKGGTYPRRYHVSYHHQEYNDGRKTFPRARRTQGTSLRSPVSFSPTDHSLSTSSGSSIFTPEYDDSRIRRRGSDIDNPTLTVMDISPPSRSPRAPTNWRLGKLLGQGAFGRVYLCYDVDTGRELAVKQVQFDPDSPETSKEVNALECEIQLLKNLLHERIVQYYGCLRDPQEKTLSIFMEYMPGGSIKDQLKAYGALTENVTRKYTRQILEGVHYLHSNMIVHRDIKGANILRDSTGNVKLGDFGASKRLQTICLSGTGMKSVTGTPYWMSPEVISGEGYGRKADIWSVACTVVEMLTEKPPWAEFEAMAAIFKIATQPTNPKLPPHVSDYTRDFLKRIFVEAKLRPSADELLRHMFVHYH

Compound in the test: Nc1ncnc2c1ncn2[C@@H]1O[C@H](COP(=O)(O)OP(=O)(O)OP(=O)(O)O)[C@@H](O)[C@H]1O [adenosine triphosphate]
Nature of the test: NP40-soluble protein abundance relative to vehicle (solubility fold change) (ratio); higher = more soluble protein in presence of ATP. The procedure, abridged:
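Values are fold changes against the detergent-processed vehicle, based on vsn-normalised intensities. Jurkat crude lysate was treated at eight concentrations from 0.1 to 10 mM (10 min at room temperature, then 3 min at 37 °C), solubilised with 0.8% NP40 and benzonase, ultracentrifuged and analysed by TMT-labelled LC-MS/MS over three independent experiments.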

± gives the standard deviation of the averaged measurements. Only a part is listed here, and it is no random draw. Most entries show no effect beyond the scatter of the controls.

UniProt Q9Y2I7 and related entries: the NP40-soluble protein abundance by setting is: (concentration: 0.1mM) 1.01 ± 0.021; (concentration: 0.5mM) 1.01 ± 0.043.
The matching figures for UTP18 (UniProt Q9Y5J1): 1.01 ± 0.035 and 1.1 ± 0.071.
Take SH3BP1 (UniProt Q9Y3L3): the NP40-soluble protein abundance worked out at 0.987 ± 0.05 (concentration: 0.1mM) and 0.987 ± 0.059 (concentration: 0.5mM).
Turning to SPCS1 (UniProt Q9Y6A9), the NP40-soluble protein abundance amounted to 0.954 ± 0.066 (concentration: 0.1mM) and 0.9944 ± 0.0046 (concentration: 0.5mM).
UniProt Q9Y2Q5 and related entries: the NP40-soluble protein abundance turned out to be 0.838 ± 0.083 (concentration: 0.1mM) and 0.803 ± 0.18 (concentration: 0.5mM).
For RNF115 (UniProt Q9Y4L5), in that order: 0.997 ± 0.12 and 0.953 ± 0.038.
Consider UniProt Q9Y2Y0 and related entries, for which the NP40-soluble protein abundance reads like this: (concentration: 0.1mM) 1.04 ± 0.056; (concentration: 0.5mM) 0.999 ± 0.094.
The matching figures for NDUFAF1 (UniProt Q9Y375): 1.03 ± 0.059 and 1.02 ± 0.033.
The matching figures for YBX2 (UniProt Q9Y2T7): 1.14 ± 0.23 and 1.05 ± 0.055.
The matching figures for ENPP4 (UniProt Q9Y6X5): 0.995 ± 0.012 and 0.978 ± 0.11.
On to UniProt Q9Y2G2-4|Q9Y2G2-5, for which the NP40-soluble protein abundance by setting is: (concentration: 0.1mM) 0.968 ± 0.066; (concentration: 0.5mM) 0.954 ± 0.049.
On to MRPS23 (UniProt Q9Y3D9), for which the NP40-soluble protein abundance (concentration: 0.1mM) was 0.913 ± 0.16 and the NP40-soluble protein abundance (concentration: 0.5mM) came out at 0.858 ± 0.13.
Take AFG3L2 (UniProt Q9Y4W6): the NP40-soluble protein abundance by setting is: (concentration: 0.1mM) 1.04 ± 0.064; (concentration: 0.5mM) 1.04 ± 0.048.
For IVNS1ABP (UniProt Q9Y6Y0), in that order: 1.02 ± 0.038 and 1.05 ± 0.078.
For the target UniProt Q9Y2S6, the NP40-soluble protein abundance turned out to be 1.1 ± 0.097 (concentration: 0.1mM) and 1.08 ± 0.03 (concentration: 0.5mM).
For GSTK1 (UniProt Q9Y2Q3), the NP40-soluble protein abundance is, setting by setting: (concentration: 0.1mM) 0.9741 ± 0.0048; (concentration: 0.5mM) 0.963 ± 0.032.
Take “R4GMR5 and related entries (UniProt P48556)”: the NP40-soluble protein abundance by setting is: (concentration: 0.1mM) 0.909 ± 0.044; (concentration: 0.5mM) 0.87 ± 0.069.
As to UniProt Q9Y3F4 and related entries, the NP40-soluble protein abundance reads like this: (concentration: 0.1mM) 1.01 ± 0.05; (concentration: 0.5mM) 1.06 ± 0.064.
In the case of TACC3 (UniProt Q9Y6A5), the NP40-soluble protein abundance came out at 0.974 ± 0.014 (concentration: 0.1mM) and 0.97 ± 0.034 (concentration: 0.5mM).
Take GTF3C3 (UniProt Q9Y5Q9): the NP40-soluble protein abundance is, setting by setting: (concentration: 0.1mM) 1.02 ± 0.02; (concentration: 0.5mM) 1.03 ± 0.022.
Take TELO2 (UniProt Q9Y4R8): the NP40-soluble protein abundance is, setting by setting: (concentration: 0.1mM) 1.02 ± 0.086; (concentration: 0.5mM) 1.01 ± 0.046.
For UniProt Q9Y679 and related entries, in that order: 1.01 ± 0.038 and 0.999 ± 0.056.
Turning to UniProt Q9Y5Q8 and related entries, the NP40-soluble protein abundance (concentration: 0.1mM) was 1.04 ± 0.015 and the NP40-soluble protein abundance (concentration: 0.5mM) is 1.028 ± 0.0098.
On to UniProt Q9Y4B5 and related entries, for which the NP40-soluble protein abundance worked out at 0.993 ± 0.065 (concentration: 0.1mM) and 1.06 ± 0.015 (concentration: 0.5mM).
With UniProt Q9Y4E5 and related entries, the NP40-soluble protein abundance reads like this: (concentration: 0.1mM) 1.05 ± 0.054; (concentration: 0.5mM) 1.03 ± 0.037.
Take UniProt Q9Y608 and related entries: the NP40-soluble protein abundance came to 0.948 ± 0.044 (concentration: 0.1mM) and 0.981 ± 0.024 (concentration: 0.5mM).
As for DIS3 (UniProt Q9Y2L1), the NP40-soluble protein abundance reads like this: (concentration: 0.1mM) 1.06 ± 0.062; (concentration: 0.5mM) 1.03 ± 0.06.
For UniProt Q9Y4B6 and related entries, in that order: 1.01 ± 0.046 and 0.999 ± 0.047.
On to NOC2L (UniProt Q9Y3T9), for which the NP40-soluble protein abundance (concentration: 0.1mM) amounted to 1.02 ± 0.049 and the NP40-soluble protein abundance (concentration: 0.5mM) was determined as 1.04 ± 0.045.
Consider FIS1 (UniProt Q9Y3D6), for which the NP40-soluble protein abundance (concentration: 0.1mM) amounted to 0.998 ± 0.084 and the NP40-soluble protein abundance (concentration: 0.5mM) amounted to 0.917 ± 0.16.
Consider CD2AP (UniProt Q9Y5K6), for which the NP40-soluble protein abundance (concentration: 0.1mM) came out at 1 ± 0.063 and the NP40-soluble protein abundance (concentration: 0.5mM) was 1.02 ± 0.087.
As to UniProt Q9Y5V3 and related entries, the NP40-soluble protein abundance by setting is: (concentration: 0.1mM) 0.959 ± 0.1; (concentration: 0.5mM) 0.986 ± 0.08.
Consider UniProt Q9Y5L0 and related entries, for which the NP40-soluble protein abundance reads like this: (concentration: 0.1mM) 0.985 ± 0.065; (concentration: 0.5mM) 0.994 ± 0.03.
UniProt Q9Y606 and related entries: the NP40-soluble protein abundance turned out to be 0.992 ± 0.049 (concentration: 0.1mM) and 0.985 ± 0.044 (concentration: 0.5mM).
For HCFC2 (UniProt Q9Y5Z7), in that order: 1.05 ± 0.066 and 1 ± 0.13.
As for OAS3 (UniProt Q9Y6K5), the NP40-soluble protein abundance by setting is: (concentration: 0.1mM) 1.05 ± 0.073; (concentration: 0.5mM) 1.01 ± 0.059.
On to UniProt Q9Y2U5, for which the NP40-soluble protein abundance runs as follows: (concentration: 0.1mM) 1 ± 0.035; (concentration: 0.5mM) 1 ± 0.034.
As for UniProt Q9Y5U2 and related entries, the NP40-soluble protein abundance is, setting by setting: (concentration: 0.1mM) 0.917 ± 0.093; (concentration: 0.5mM) 0.865 ± 0.14.
For the target SEC23IP (UniProt Q9Y6Y8), the NP40-soluble protein abundance by setting is: (concentration: 0.1mM) 0.994 ± 0.041; (concentration: 0.5mM) 1.02 ± 0.061.
